# From PubChem BioAssay AID493014 (National Center for Advancing Translational Sciences (NCATS), 2011)
# Out of some 340,000 compounds screened, about 170 (0.05%) were called active. Inconclusive results, whose numbers are uncertain, are shown with a selection of clear calls. Calls follow the shape of the dose curve; as a rule, active = well fitted inhibition curve with a large enough effect in the signal ratio, with a control signal flat (not every such curve was filed as active); inconclusive = small, poorly fitted or top-dose-only effect, or effect the other way, or a change in a side signal; inactive = flat fitted curve, though single readings scatter; the % refers to the signal ratio. Potencies of inconclusive entries are doubtful fits and often do not repeat.
# Test: qHTS Assay to Find Inhibitors of Chronic Active B-Cell Receptor Signaling;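 as to activity change, negative = inhibition: plate controls were basal doxycycline-induced cells for no effect and cells given 10 µM MG132 for full effect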
# Settings: ABC-DLBCL IkBa-CBG/CBR reporter, luminescence ratio (green luciferase fused to IkBa over red control in TMD8 lymphoma cells), 4 h; activity change, negative = inhibition: at 46.1 µM (top of the series)
# How it was run: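 TMD8 ABC-DLBCL cells carrying doxycycline-inducible green luciferase fused to IkappaBalpha plus unfused red luciferase were exposed to compounds (up to 46 uM) for 4 hrs at 37C. Activity came from the overlap-corrected green/red luminescence ratio.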
# Potency is read from the fitted curve at half-maximal effect.
SMILES,"activity change, negative = inhibition",Potency
Cc1ccc(NC(=O)c2c(Cl)n(C)c3ccccc23)cc1,inconclusive: -9.59%,
COc1ccc(C2=NN(C(=O)CCCC(=O)O)C(c3cccs3)C2)cc1OC (stereo unspecified),inconclusive: 1.51%,
CCOc1ccccc1NC1=C(Cl)C(=O)N(c2ccccc2)C1=O,inconclusive: -10.3%,
C=CC[C@@H](CC(=O)N(CCO)Cc1ccccc1)C(=O)N[C@@H](COC(=O)[C@H](CC=C)CC(=O)OC(C)(C)C)Cc1c[nH]c2ccccc12,inconclusive: 0.121%,
Cc1ccc(CCN2CC(C(=O)NCCc3ccccc3)CC2=O)cc1 (stereo unspecified),inconclusive: 9.87%,
Cn1c(=O)c2c(ncn2CC(=O)N/N=C/c2c[nH]c3ccccc23)n(C)c1=O,inactive,
Cc1ccc(C)c(S(=O)(=O)N2CCN(C(=O)CCC(=O)c3cc(C)sc3C)CC2)c1,inactive,
Cc1ccc(-c2nc(-c3ccccc3)no2)c(Cl)c1,inactive,
COc1cc(C)c(CN2CCN(S(=O)(=O)c3ccc(Cl)s3)CC2)cc1OC,inconclusive: -1.34%,
COc1ccc(CCNC(=O)NCCc2c[nH]c3ccccc23)cc1OC,inconclusive: -4.2%,
COc1ccc(C(=O)NCC(=O)n2nc(C)cc2C)cc1OC,inactive,
O=C(NC(=S)N1CCN(c2ccc(F)cc2)CC1)c1cccs1,,"inconclusive: 2.82 µM [falling, partial curve, poor fit]"
Cc1cc(C(C)(C)C)oc1C(=O)N(CC(=O)NC1CCCC1)Cc1ccc(F)cc1,inconclusive: 4.84%,
Cc1ccc(S(=O)(=O)N(CC(=O)Nc2cccc(N(C)S(C)(=O)=O)c2)c2ccc(Cl)c(Cl)c2)cc1,inactive,
CC(C(=O)N1CCCC1)c1ccc([N+](=O)[O-])cc1 (stereo unspecified),inconclusive: 3.68%,
CC(=O)c1cccc(S(=O)(=O)NCC(c2ccco2)N2CCCCC2)c1 (stereo unspecified),inconclusive: -0.892%,
O=C(CCCN1C(=O)/C(=C/c2ccccc2Cl)SC1=S)NNC(=O)c1cccnc1,,"inconclusive: 35.5 µM [rising, single point]"
COc1ccc(C(=O)Oc2cccc3cccnc23)cc1[N+](=O)[O-],,"inconclusive: 17.8 µM [falling, partial curve, poor fit]"
C/C(=N/NS(=O)(=O)c1ccc(Cl)cc1)c1cccc(NC(=O)c2ccc(Cl)cc2Cl)c1,inconclusive: -18.1%,
N#CCC(=O)N1CCN(C=O)CC1,inactive,
C=Cc1cccc(NC(=O)COc2ccccc2)c1,,"inconclusive: 2.06 µM [rising, partial curve, poor fit]"
CCOc1ccccc1/C=N/NC(=O)c1cc(C(C)C)[nH]n1,,"inconclusive: 12.6 µM [falling, partial curve]"
Cc1nnc(SCc2nc3ccccc3s2)n1N,inconclusive: 23.6%,
CCOc1ccc(NC(=O)CC2Nc3ccccc3NC2=O)cc1 (stereo unspecified),inconclusive: -1.52%,
O=C(Nc1ccccc1)c1nnsc1S(=O)c1ccc(Cl)cc1 (stereo unspecified),inconclusive: 15.9%,
Cc1ccc(NC(=O)Cn2c(O)c(N=NC(N)=O)c3ccccc32)cc1,inactive,

# A run of entries taken from the entries so far, for reference:
SMILES,"activity change, negative = inhibition",Potency
CC(=O)c1cccc(S(=O)(=O)NCC(c2ccco2)N2CCCCC2)c1 (stereo unspecified),inconclusive: -0.892%,
O=C(CCCN1C(=O)/C(=C/c2ccccc2Cl)SC1=S)NNC(=O)c1cccnc1,,"inconclusive: 35.5 µM [rising, single point]"

# Additional records follow.

SMILES,"activity change, negative = inhibition",Potency
CCCC1C(=O)Nc2ccccc2N1C(=O)c1ccc(C(C)(C)C)cc1 (stereo unspecified),inconclusive: -5.84%,
C/C(=N\NC(=O)c1c[nH]c2ccccc12)c1ccc(C)o1,,"inconclusive: 18.4 µM [falling, partial curve]"
Nc1nonc1-n1nnc(C(=O)N/N=C/c2ccc(OCc3ccccc3)cc2)c1CN1CCCCC1,inactive,
N#Cc1c2n(c3c(=O)n(Cc4ccc(Cl)cc4)cnc13)CCCCC2,inconclusive: 11.1%,
N#CC1=C(N)N=C(SCc2ccccc2)C(C(N)=O)C12CCCCC2 (stereo unspecified),inconclusive: 16.3%,
COc1ccc(NC(=O)c2cccc3c2C(=O)c2ccc(-c4ccc(F)cc4OCc4ccccc4)cc2S3(=O)=O)cc1,inconclusive: -1.27%,
O=C(NCc1ccccc1)c1ccc(Cl)c(S(=O)(=O)N2CCCC2)c1,inconclusive: 3.99%,
CCOc1ccc(-c2cc(C(=O)NCc3ccccc3Cl)c3ccccc3n2)cc1,inactive,
COc1ccccc1OCCSc1nc2ccccc2n1CC(N)=O,inactive,
CCN1CC(CN(C)Cc2nc(Cc3ccccc3)no2)CC1=O (stereo unspecified),inactive,
Cc1ccc2cc(CN(CC(C)C)S(=O)(=O)c3cccc4nonc34)c(=O)[nH]c2c1,inactive,
CC(=NCCCn1ccnc1)c1c(C)[nH]n(-c2ccc([N+](=O)[O-])cc2)c1=O,,"inconclusive: 22.4 µM [falling, partial curve]"
CCOC(=O)c1sc(NC(=S)NC(=O)CC(C)C)cc1C,,"inconclusive: 3.98 µM [falling, partial curve, poor fit]"
C/C(=N/NS(=O)(=O)c1ccccc1)c1ccc(NC(=O)C2CC2)cc1,inconclusive: -0.777%,
Cc1noc(C)c1C(=O)OCC(=O)Nc1cccc(S(N)(=O)=O)c1,inconclusive: -6.97%,
CCOC(=O)c1c(C)[nH]c(C(=O)COC(=O)c2ccc(O)cc2)c1C,inconclusive: -6.52%,
CCNC(=S)Nc1ccc(-c2nc3ccccc3[nH]2)cc1,,"inconclusive: 7.08 µM [falling, partial curve, poor fit]"
Cc1ccccc1CSCCNC(=O)CSCc1ccc([N+](=O)[O-])cc1,inconclusive: 11.4%,
O=C(O)c1cc(N/N=C/c2ccc(-c3ccc(F)cc3)o2)ccc1Cl,,"inconclusive: 10 µM [falling, partial curve, poor fit]"
Cc1nn(-c2ccccc2)c(N2CCCC2)c1/C=N/NC(=O)c1cc2ccccc2cc1O,inconclusive: 8.91%,
O=C1CCCCc2sc(Br)c([N+](=O)[O-])c2N1,inconclusive: 29.5%,
CCCCOc1ccc(CNC(=S)N/N=C/c2ccc(OC)c(OC)c2)cc1,,"inconclusive: 2.31 µM [falling, partial curve]"
CCc1ccc(NC(=O)NNC(=O)CCc2ccccc2)cc1,inactive,
CCCCCC(=O)N1CC2(C)CN(C(=O)CCCCC)CC(C)(C1)C2=O,inconclusive: -1.89%,
Cc1ccc(SCCC(=O)N(C)CC(=O)Nc2c(C)cccc2C)cc1,inactive,
